# Out of some 350,000 compounds screened, about 1,200 (0.34%) were called active. This list was built around the results that the source calls inconclusive (neither active nor inactive); the mix of calls is not that of the screen. Calls come from the whole dose curve; as a rule, active = well fitted inhibition curve with a large enough effect; inconclusive = small, poorly fitted or top-dose-only effect; inactive = no such curve, though single readings can be large or run the other way. Potencies beside an inconclusive call are fits to weak or partial responses and may not hold up. Starred links: 1 amine or outer side, 2 acyl side, 3 side chain; linkers in the order of their positions; H or OH if unused. Positions of bridges follow the written chain, without caps; N, C: chain ends. Non-standard residues stand in square brackets, D forms with d. Residues, ends and D or L forms follow the SMILES beside them. ξ: configuration not given here. hSer(Ph(2-I,4-NO2,6-CO)) = O=C([C@H](CCOc1c(I)cc([N+](=O)[O-])cc1C(=O)[*:3])N[*:1])[*:2]; ξD = NC(CC(=O)O)C(=O)O
# Amino acid sequences for entries named in this document (tags omitted).
# UniProt P27695, whole entry, looked up: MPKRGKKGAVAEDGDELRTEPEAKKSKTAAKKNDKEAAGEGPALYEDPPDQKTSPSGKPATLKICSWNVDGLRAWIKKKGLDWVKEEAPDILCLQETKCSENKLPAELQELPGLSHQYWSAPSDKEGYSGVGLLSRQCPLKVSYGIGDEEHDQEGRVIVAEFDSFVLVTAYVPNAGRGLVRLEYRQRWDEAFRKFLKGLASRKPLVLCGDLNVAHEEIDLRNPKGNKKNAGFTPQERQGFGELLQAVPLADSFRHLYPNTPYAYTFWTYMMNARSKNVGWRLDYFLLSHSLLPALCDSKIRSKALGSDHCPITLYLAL
# Target: DNA repair nuclease/redox regulator APEX1 (Homo sapiens) (UniProt P27695)
# Test: qHTS Assay for Inhibitors of the Human Apurinic/apyrimidinic Endonuclease 1 (APE1); note: nearly all actives have a fitted effect of over 55% in size;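 for activity change, negative = inhibition: plate controls were vehicle for no effect and reference inhibitor for full effect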
# Conditions: recombinant APE1, TAMRA/BHQ-2 abasic DNA cleavage fluorescence; activity change, negative = inhibition: at 65.8 µM (top of the series)
# Procedure, shortened: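 Readout is kinetic fluorescence (ex 525, em 598 nm) from cleavage of 50 nM TAMRA/BHQ-2 THF abasic duplex by 0.75 nM APE1, compound added 15 min beforehand at RT.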
# Potency is the fitted concentration of half-maximal effect.
SMILES,Potency,"activity change, negative = inhibition"
O=c1c2ccccc2nnn1Cc1nnc(-c2ccccc2Br)o1,"inconclusive: 50.1 µM [inhibitor, partial curve, poor fit]",
O=C(N/N=C/c1ccoc1)c1cccc([N+](=O)[O-])c1,"inconclusive: 16.8 µM [inhibitor, single point]",
CC(C(=O)NC1C(=O)N2C(C(=O)O)=C(CSc3nnnn3C)CSC12)n1cc(Br)cn1 (stereo not drawn),"inconclusive: 25.1 µM [inhibitor, single point]",
Cc1cc(=O)cc2oc3cc(N)c(-c4c(C)cc(O)cc4O)c(C)c3nc1-2,"inconclusive: 14.1 µM [inhibitor, partial curve, poor fit]",
O=C1N=C(N2C=CC(=C3C=CNC=C3)C=C2)/C(=C/N=NC(=O)c2ccccc2O)S1,inactive,
CN1N=C(C(C)(C)C)CC1=O,"inconclusive: 28.2 µM [inhibitor, single point]",
COCCCN(C(=O)c1cc2c(s1)CCC2)c1c(N)n(Cc2ccccc2)c(=O)[nH]c1=O,"inconclusive: 20 µM [inhibitor, partial curve]",
CCN(CC)S(=O)(=O)c1ccc(OC)c(NS(=O)(=O)c2cccc(C(=O)O)c2)c1,"inconclusive: 2.24 µM [inhibitor, partial curve]",
O=C(CCNC(=O)c1ccc([N+](=O)[O-])cc1)Nc1nc2ccccc2[nH]1,inactive,
Cc1ccc2c(c1)N(CC(=O)N1CCN(C3CCCCC3)CC1)C(=O)CO2,,inactive: 24.7% [at 12.4 µM]
CC[C@H](C)[C@H](NC(=O)[C@H](CC(C)C)NC(=O)[C@@H](N)CO)C(=O)NCC(=O)N[C@@H](CCCCN)C(=O)N[C@H](C(=O)O)C(C)C,inactive,
Clc1nn2cnnc2c2ccccc12,"inconclusive: 6.31 µM [inhibitor, single point]",
CO[C@H]1COC(=O)C/C=C\[C@H](C)[C@@H](OC)COC(=O)[C@H](C)COC(=O)C/C=C\[C@@H]1C,"inconclusive: 3.16 µM [inhibitor, single point]",
"NC(=O)C(CC(=O)O)NC(=O)[C@@H]1CCOc2c(I)cc([N+](=O)[O-])cc2C(=O)N[C@@H](CO)C(=O)N[C@@H](Cc2ccc(O)cc2)C(=O)N1 (stereo partly drawn) (SY[hSer(Ph(2-I,4-NO2,6-CO))][ξD]-NH2; lactam N-3)","inconclusive: 3.55 µM [inhibitor, single point]",
C=CCN1C(=O)/C(=C/C=C2/N(CC)c3ccc(S(=O)(=O)N(C)C)cc3N2CC)SC1=S,"inconclusive: 3.55 µM [inhibitor, full curve]",
C/C(=N\NC(=O)COc1ccccc1-c1ccccc1)c1ccccn1,"inconclusive: 35.5 µM [inhibitor, single point]",
CCN(C(=O)COc1ncnc2sccc12)c1ccccc1,"inconclusive: 44.7 µM [inhibitor, single point]",
Cc1cccc(NS(=O)(=O)c2ccc3[nH]c(=O)cc(C(=O)O)c3c2)c1,"inconclusive: 28.2 µM [inhibitor, single point]",
Cc1cc(C)c(S(=O)(=O)N(C2=NCCS2)S(=O)(=O)c2c(C)cc(C)cc2C)c(C)c1,"inconclusive: 20 µM [inhibitor, partial curve, poor fit]",
COc1cc(/C=N/N2C(=O)CSC2=S)cc(Br)c1O,"inconclusive: 35.5 µM [inhibitor, single point]",
COc1ccc(-c2cc(C(=O)N/N=C/c3sccc3C)c3ccccc3n2)c(OC)c1,"inconclusive: 0.0224 µM [inhibitor, full curve, poor fit]",

SMILES,Potency,"activity change, negative = inhibition"
COc1ccc(CCn2c(NN)nc3c2c(=O)[nH]c(=O)n3C)cc1,inactive,
CCc1cc2c(=O)c(-c3nc4ccccc4n3C)coc2c(CN2CCC(C)CC2)c1O,inactive,
CC1(C)CC(=O)C2=C(C1)N(CCN1CCOCC1)C1=C(C(=O)CC(C)(C)C1)C2c1cccc(F)c1,inactive,
CCOC(=O)NC1(NCC(C)C)Oc2ccccc2O1,"inconclusive: 6.31 µM [inhibitor, partial curve]",
CCO/C=C1\SC(=S)N(c2ccc(Cl)cc2)C1=O,"inconclusive: 39.8 µM [inhibitor, single point]",
CCOc1ccc(N(CC(=O)Nc2ccc(OC)cc2)S(=O)(=O)c2c(C)noc2C)cc1,"inconclusive: 44.7 µM [inhibitor, single point]",
CC(=O)c1c(C)[nH]c(C(=O)COC(=O)c2cccs2)c1C,"inconclusive: 42.3 µM [inhibitor, single point]",
Cc1ccc2nc(-c3ccncc3)cc(C(=O)NCCc3ccc(F)cc3)c2c1,"inconclusive: 39.8 µM [inhibitor, single point]",
C[C@@H]1COC(=O)[C@H](NC(=O)OCC2c3ccccc3-c3ccccc32)C/C=C\C[C@@H](CC(=O)N(CCO)Cc2ccccc2)C(=O)N1,"inconclusive: 21.2 µM [inhibitor, single point]",
O=C(c1cc(-c2ccncc2)nc2ccccc12)N1CCN(c2ccccc2O)CC1,inactive,
COc1cc(/C=C2/SC(=S)N(CC3CCCO3)C2=O)ccc1O (stereo not drawn),"inconclusive: 20 µM [inhibitor, single point]",
Cc1ccc(-c2nn[nH]n2)cc1Cl,"inconclusive: 3.55 µM [inhibitor, single point]",
Nc1ccc(C(=O)O)cc1[N+](=O)[O-],inactive,
O=c1c(-c2cc(F)cc(F)c2)nc2cncnc2n1Cc1ccccc1,"inconclusive: 0.447 µM [inhibitor, single point]",
O=C(CNC(=O)c1ccccc1)NCC1COc2ccccc2O1 (stereo not drawn),inactive,
O=C1c2ccccc2CCCC12N=NCC2c1cccc2ccccc12 (stereo not drawn),"inconclusive: 44.7 µM [inhibitor, single point]",
C=CCN1C(=O)C(Cc2cccc(Cl)c2)SC1=Nc1ccc(C(=O)O)cc1 (stereo not drawn),"inconclusive: 0.224 µM [inhibitor, full curve, poor fit]",
O=C(CSc1ccc(-c2nc3ccccc3[nH]2)cn1)N1CCN(C(=O)c2ccco2)CC1,"inconclusive: 39.8 µM [inhibitor, single point]",
S=c1nc(-c2cccc(Cl)c2)[nH][nH]1,inactive,
COc1cc(-c2nn3c(-c4ccco4)nnc3s2)cc(OC)c1OC,inactive,
CCC(C)c1ccc(C2C3=C(Nc4nc(N)[nH]c(=O)c42)c2ccccc2C3=O)cc1 (stereo not drawn),"inconclusive: 20 µM [inhibitor, single point]",

SMILES,Potency,"activity change, negative = inhibition"
CCOc1ccc(Cn2nnc(C(=O)Nc3cc(C)cc(C)c3)c2N)cc1,"inconclusive: 25.1 µM [inhibitor, single point]",
COc1cccc(C(C)NC(=O)c2c(F)cccc2Cl)c1 (stereo not drawn),"inconclusive: 0.0631 µM [inhibitor, partial curve, poor fit]",
CCOC(=O)c1ccc(NC(=S)N2CCSC2c2ccc(Cl)cc2)cc1 (stereo not drawn),inactive,
O=C(COC(=O)C1CCCN1C(=O)c1cccs1)c1ccccc1 (stereo not drawn),"inconclusive: 44.7 µM [inhibitor, single point]",
COc1cc(OC)cc(N2C(=O)CC(N3CCC(C(=O)N4CCCCC4)CC3)C2=O)c1 (stereo not drawn),"inconclusive: 21.2 µM [inhibitor, single point]",
C=CCOc1ccc(C(c2c(C(=O)O)[nH]c3ccccc23)c2c(C(=O)O)[nH]c3ccccc23)cc1,inactive,
Cc1nc(-c2ccc(S(=O)(=O)Nc3cc(S(=O)(=O)N(C)C)ccc3C)s2)cs1,"inconclusive: 7.08 µM [inhibitor, single point]",
Cc1ccc(C)c2[nH]c(=O)c(CCNC(=O)c3cccs3)cc12,"inconclusive: 8.91 µM [inhibitor, single point]",
COc1ccc(/C=C/C(=O)O)cc1,"inconclusive: 35.5 µM [inhibitor, single point]",
CCCSc1nc(C)c2cc(C)cc(C)c2n1,inactive,
COc1cccc(CNC(=O)c2ccc(CS(=O)(=O)Cc3ccc(C)cc3)o2)c1,"inconclusive: 10 µM [inhibitor, single point]",
Cc1ccc(-c2nn(-c3ccccc3)cc2C(=O)O)o1,"inconclusive: 31.6 µM [inhibitor, single point]",
Cc1ccc(S(=O)(=O)c2c(N)n(Cc3ccco3)c3nc4ccccc4nc23)cc1C,"inconclusive: 0.398 µM [inhibitor, partial curve, poor fit]",
Cc1ccc(NC(=O)C2CC(=O)N(CCc3ccccc3)C2)c(C)c1 (stereo not drawn),"inconclusive: 0.0089 µM [inhibitor, full curve, poor fit]",
Cc1ccc(-c2c(C3C4C=CCCC4(C)C(=O)N3Cc3ccccc3)ccc3ccccc23)cc1 (stereo not drawn),inactive,
CCOC(=O)Nc1ccc2c(COC(=O)C(NS(=O)(=O)c3ccc(Cl)cc3)C(C)O)cc(=O)oc2c1 (stereo not drawn),"inconclusive: 29.9 µM [inhibitor, single point]",
Cc1ccc(C(=O)N/N=C\c2cc(Br)c(Br)o2)cn1,"inconclusive: 25.1 µM [inhibitor, partial curve]",
Cc1ccc(-c2ccc(C(=O)NCc3ccc(Cl)cc3)o2)c2ccccc12,"inconclusive: 3.16 µM [inhibitor, single point]",
NS(=O)(=O)c1cccc(NC(=O)c2ccc3nc[nH]c3c2)c1,"inconclusive: 26.7 µM [inhibitor, partial curve]",
Cn1c(=S)ccc2ccccc21,"inconclusive: 44.7 µM [inhibitor, single point]",
CSc1ccc(C2C(C#N)=C(N)Oc3c2ccc(=O)c2c(C)oc(C)c32)cc1 (stereo not drawn),"inconclusive: 25.1 µM [inhibitor, partial curve, poor fit]",

# 3 structures already listed, arranged by length of the SMILES, descending:
SMILES,Potency,"activity change, negative = inhibition"
CCOC(=O)Nc1ccc2c(COC(=O)C(NS(=O)(=O)c3ccc(Cl)cc3)C(C)O)cc(=O)oc2c1 (stereo not drawn),"inconclusive: 29.9 µM [inhibitor, single point]",
Cc1ccc(NC(=O)C2CC(=O)N(CCc3ccccc3)C2)c(C)c1 (stereo not drawn),"inconclusive: 0.0089 µM [inhibitor, full curve, poor fit]",
O=C(COC(=O)C1CCCN1C(=O)c1cccs1)c1ccccc1 (stereo not drawn),"inconclusive: 44.7 µM [inhibitor, single point]",

# Source: PubChem BioAssay AID2517 (National Center for Advancing Translational Sciences (NCATS), 2010)
